Test results: PubChem BioAssay AID504465 (National Center for Advancing Translational Sciences (NCATS), 2011)
The whole screen tested about 2,100 compounds, of which about 210 (10%) were called active. Inconclusive means that the source gave no clear call. Such entries were picked first, then a sample of the others. Calls follow the shape of the dose curve; as a rule, active = well fitted inhibition curve with a large enough effect; inconclusive = small, poorly fitted or top-dose-only effect, or effect the other way; inactive = no such curve, though single readings can be large or run the other way. A potency beside an inconclusive call is a rough fit, not a confirmed value.

Assay: IN Cell qHTS Assay for Inhibitors of the mTORC1 Signaling Pathway in MEF (Tsc2-/-, p53-/-) Cells: Sytravon; also: nearly all actives have a fitted effect of over 60% in size
Settings: phospho-rpS6 immunofluorescence, 24 h; series mostly up to 38.3 µM
How it was run: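 Immunofluorescence of rpS6 phosphorylation (Ser235/236) in mouse embryonic fibroblasts lacking Tsc2 and p53, after 24 h compound exposure; Hoechst-normalized signal imaged, each well scored as % active cells relative to rapamycin (7.5 nM) and DMSO controls.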
Potency is read from the fitted curve at half-maximal effect.

SMILES	Potency
CCCOc1ccc(N2CC(C(=O)Nc3cccc(Cl)c3Cl)CC2=O)cc1 (stereo not drawn)	inconclusive: 18.5 µM [falling, single point]
Cc1cc(OCC(=O)NCC2(N3CCN(C)CC3)CCCCC2)cc(C)c1Cl	inconclusive: 16.5 µM [falling, single point]
CCCN1C(=O)C(Cc2nc3ccccc3c(=O)n2CC)c2ccccc21 (stereo not drawn)	inactive
O=C(C1CCC(CNS(=O)(=O)c2ccc(Br)s2)CC1)N1CCN(c2ccccc2)CC1 (stereo not drawn)	inactive
CC(=O)N1c2ccc(S(=O)(=O)NCC3CCC(C(=O)NCCC(C)C)CC3)cc2CC1C (stereo not drawn)	inconclusive: 2.33 µM [falling, partial curve, poor fit]
COc1cc(OC)cc(C(=O)Nc2cc3nn(-c4ccccc4)nc3cc2Cl)c1	inactive
CCCS(=O)(=O)c1ncc(Cl)c(C(=O)N(Cc2ccccc2)Cc2ccco2)n1	inconclusive: 16.5 µM [falling, single point]
CCOc1ccc(-c2oc3ccccc3c(=O)c2O)cc1OCC	inactive
Cc1c(C(=O)OCCOc2ccccc2)[nH]c2c1C(=O)CC(c1ccccc1Cl)C2 (stereo not drawn)	inconclusive: 5.21 µM [falling, partial curve, poor fit]
CCc1ccc(OCC(=O)Nc2ccc3oc(-c4ccc(OC)cc4)nc3c2)cc1	inconclusive: 14.7 µM [falling, single point]
CCOc1ccc(S(=O)(=O)NCC(c2cccs2)S(=O)(=O)c2ccc(C)cc2)cc1 (stereo not drawn)	inconclusive: 4.65 µM [falling, single point]
CNS(=O)(=O)c1cn(CC(=O)N2CCN(c3cccc(Cl)c3)CC2)cc1S(=O)(=O)NC	inactive
CCC(=O)N1CCc2cc(S(=O)(=O)NC(Cc3ccccc3)C(=O)NCc3ccc(F)cc3)ccc21 (stereo not drawn)	inconclusive: 16.5 µM [falling, partial curve, poor fit]
CC1C(=O)N2CCCc3cc(S(=O)(=O)Nc4ccc(Br)cc4F)cc1c32 (stereo not drawn)	active: 14.7 µM
CC(CNC(=O)c1ccc2nc(CCc3ccccc3)oc2c1)c1ccccc1 (stereo not drawn)	inactive
COc1ccc(-c2nc3ccccc3o2)cc1NC(=O)COc1c(C)cc(Cl)cc1Cl	inconclusive: 2.07 µM [falling, single point]
CCN1CCN(c2cc(C)c3cc(NC(=O)c4cc(OC)c(OC)c(OC)c4)ccc3n2)CC1	inconclusive: 23.3 µM [falling, partial curve, poor fit]
Cn1c(Oc2cccc(Cl)c2)nc2c1c(=O)n(Cc1ccccc1Cl)c(=O)n2C	inconclusive: 23.3 µM [falling, single point]
COc1cc(-c2nc(-c3ccccc3)c(-c3ccc(Br)cc3)[nH]2)cc(OC)c1O	inactive
COc1ccc2nc(NC(=O)c3nc(S(=O)(=O)Cc4ccc(C)cc4)ncc3Cl)sc2c1	inconclusive: 20.7 µM [falling, single point]
CCOc1ccc(S(=O)(=O)N(CC(=O)Nc2ccc(OC)c(Cl)c2)c2ccccc2)cc1	inconclusive: 6.56 µM [falling, partial curve, poor fit]
Cc1nc2nncn2c(NCc2ccc(Cl)cc2)c1C	inactive
CCN(CC)CCCNC(=O)CSc1c2c(nc3cc(Cl)ccc13)CCCC2	inconclusive: 0.0656 µM [falling, full curve, poor fit]

SMILES	Potency
CCc1ccc(NC(=O)Cn2nc3c4ccccc4n(Cc4ccccc4)cc-3c2=O)cc1	inconclusive: 0.927 µM [falling, full curve, poor fit]
Cc1ccc(C)c(CN2CCC(CNC(=O)Nc3ccc(Br)cc3F)CC2)c1	active: 14.7 µM
Cc1cc2c(cc1C)NC(CC(=O)Nc1ccccc1)C(=O)N2 (stereo not drawn)	inactive
CCOC(=O)c1cc(-c2ccc(C)cc2)n(CC(=O)Nc2ccccc2F)c1C	active: 14.7 µM
O=C(CCCn1c(=O)c2ccccc2n(Cc2cccc(Cl)c2)c1=O)NCCc1ccc(Cl)cc1	inactive
CCOC(=O)c1ccc(N2C(=O)c3n[nH]c(-c4ccco4)c3C2c2ccc(OCC)cc2)cc1 (stereo not drawn)	inconclusive: 26.1 µM [falling, partial curve, poor fit]
CCc1ccc(S(=O)(=O)N(C(=O)c2ccncc2)c2ccc3oc(C)c(C(=O)OC)c3c2)cc1	inconclusive: 23.3 µM [falling, single point]
CCOC(=O)c1ccc(N2C(=O)c3n[nH]c(-c4ccco4)c3C2c2ccc(C)cc2)cc1 (stereo not drawn)	inconclusive: 3.29 µM [falling, partial curve, poor fit]
Cc1cccc(NC(=O)CSc2ccc(-c3ccccn3)nn2)c1	inconclusive: 26.1 µM [falling, single point]
CCCCSc1nnc2c(n1)OC(c1ccc(Br)s1)N(C(C)=O)c1ccccc1-2 (stereo not drawn)	inconclusive: 14.7 µM [falling, single point]
Cn1nnnc1SCCCNCc1cc(Cl)ccc1OCc1ccc(F)cc1	inconclusive: 26.1 µM [falling, single point]
Cc1ccc(C)c(CN2C(=O)c3ccccc3S(=O)(=O)c3ccc(C(=O)NCCCN4CCCC(C)C4)cc32)c1 (stereo not drawn)	active: 5.21 µM
Cc1cccc(OCC(=O)N(Cc2ccc(C(C)(C)C)cc2)Cc2ccco2)c1	inactive
O=C(NCCc1ccccc1Cl)c1sc2ncccc2c1-n1cccc1	inactive
COc1ccc(CNC(=O)CCCN2C(=O)COc3ccc(C)cc32)cc1	inconclusive: 5.85 µM [falling, single point]
Cc1cccc(C2C=C(c3ccc(C)c(C)c3)Nc3nnnn32)c1 (stereo not drawn)	inactive
CCC1=Nc2cc(C(=O)NC3CCC(C)CC3)ccc2Sc2ccc(C)cc21 (stereo not drawn)	inactive
O=C(Nc1ccc(S(=O)(=O)N2CCCCC2c2cccnc2)cc1)c1ccc(Br)cc1 (stereo not drawn)	inconclusive: 14.7 µM [falling, single point]
CCCn1c(=O)sc2cc(NC(=O)c3ccc(OC)c(Br)c3)ccc21	inactive
CN(C)CCNC(=O)C1CCN(Cc2cc3ccccc3n2Cc2ccccc2)CC1	inconclusive: 23.3 µM [falling, single point]
CCCN(CCC)CCCNC(=O)c1cc2c(-c3ccc(OC)c(OC)c3)nn(C)c2s1	active: 16.5 µM
O=C(CSc1nccn1-c1ccc(Cl)cc1)Nc1ccc(Cl)c(Cl)c1	inactive
CN1CCc2c(sc(NC(=O)CSc3ccccc3)c2-c2nc3ccccc3s2)C1	inactive

Sorted by formula weight (low to high): some entries from above.
SMILES	Potency
O=C(CSc1nccn1-c1ccc(Cl)cc1)Nc1ccc(Cl)c(Cl)c1	inactive
CCOC(=O)c1ccc(N2C(=O)c3n[nH]c(-c4ccco4)c3C2c2ccc(C)cc2)cc1 (stereo not drawn)	inconclusive: 3.29 µM [falling, partial curve, poor fit]
O=C(CCCn1c(=O)c2ccccc2n(Cc2cccc(Cl)c2)c1=O)NCCc1ccc(Cl)cc1	inactive

Remaining list, next part

SMILES	Potency
Cc1c(Cl)cccc1-n1ncc(C(=O)Nc2ccc(Br)cc2F)c1C1CCNCC1	inconclusive: 26.1 µM [falling, single point]
CCOc1ccccc1CNCc1cccn1-c1nnc(N2CCN(c3ccccc3)CC2)s1	inconclusive: 26.1 µM [falling, single point]
Cc1ccccc1Nc1c(-c2ccc(N3CCOCC3)cc2)nc2ccccn12	inconclusive: 23.3 µM [falling, single point]
CCOC(=O)c1cc(S(=O)(=O)NCc2ccc(C)cc2)[nH]n1	inactive
CSc1ccc(CCNC(=O)CCn2c(=O)c3cccn3c3ccc(F)cc32)cc1	inactive
CCc1ccc(NC(=O)Cn2c(=O)n(CCCCC(=O)NCc3ccc4c(c3)OCO4)c(=O)c3ccccc32)cc1	inconclusive: 23.3 µM [falling, single point]
Cc1ccc(Nc2nnc(-c3ccc(C)c(S(=O)(=O)N4CCN(C)CC4)c3)c3ccccc23)cc1	inconclusive: 14.7 µM [falling, single point]
CCc1ccc2c(c1)c(=O)c(S(=O)(=O)c1ccc(Cl)cc1)cn2CC	inconclusive: 0.117 µM [falling, full curve, poor fit]
O=C(CC1(O)C(=O)N(CCc2ccccc2)c2ccc(Br)cc21)c1ccc(F)cc1 (stereo not drawn)	inconclusive: 14.7 µM [falling, partial curve, poor fit]
Cc1ccc(Nc2c(-c3ccc(N(C)C)cc3)nc3nc[nH]n23)cc1	inconclusive: 23.3 µM [falling, single point]
O=C(Cc1ccccc1)Nc1sc2c(c1C(=O)Nc1ccccc1)CCCCC2	inconclusive: 23.3 µM [falling, single point]
Cc1ccc(-n2ncc(C(=O)NCCc3ccccc3)c2C2CCN(C(=O)OC(C)(C)C)CC2)c(C)c1	inconclusive: 0.261 µM [falling, full curve, poor fit]
O=S(=O)(c1ccc(-c2csc(=Nc3ccc(OC(F)(F)Cl)cc3)n2CCCO)cc1)N1CCCC1	active: 1.85 µM
COc1ccc(C(=O)Nc2ccc3oc(-c4ccc5ccccc5c4)nc3c2)cc1Br	active: 13.1 µM
CSc1ccc(CCNC(=O)C(C)n2nc(C)c3sc4ccccc4c3c2=O)cc1 (stereo not drawn)	active: 1.17 µM
CC(C)Oc1cccc(C2CC(=O)Nc3cc4c(cc32)OCO4)c1 (stereo not drawn)	inactive
COCCCN1C(=O)c2[nH]nc(-c3ccccc3O)c2C1c1ccc(OCc2ccccc2)cc1 (stereo not drawn)	inconclusive: 26.1 µM [falling, single point]
O=C(Nc1cc(Cl)cc(Cl)c1)c1ccc(F)c(S(=O)(=O)N2CCCCCC2)c1	inactive
Cc1ccc(C(C)C)c(OCC(=O)NCC2(N3CCOCC3)CCCCC2)c1	inconclusive: 0.414 µM [falling, full curve, poor fit]
COc1ccc(Br)c(C(=O)Nc2cc3c(cc2N2CCCC2)n(C)c(=O)c(=O)n3C)c1	inactive
CCCN(CCC)CC(O)Cn1cc(/C=C/C(=O)c2ccc(OC)cc2)c2ccccc21 (stereo not drawn)	inconclusive: 1.17 µM [falling, full curve, poor fit]
COc1ccc(-c2nc(CCNC(=O)c3cccs3)cs2)cc1	inconclusive: 23.3 µM [falling, single point]

Molecules shown so far that have two or more sulfur atoms, in the order listed:
SMILES	Potency
O=C(C1CCC(CNS(=O)(=O)c2ccc(Br)s2)CC1)N1CCN(c2ccccc2)CC1 (stereo not drawn)	inactive
CCOc1ccc(S(=O)(=O)NCC(c2cccs2)S(=O)(=O)c2ccc(C)cc2)cc1 (stereo not drawn)	inconclusive: 4.65 µM [falling, single point]
CNS(=O)(=O)c1cn(CC(=O)N2CCN(c3cccc(Cl)c3)CC2)cc1S(=O)(=O)NC	inactive
COc1ccc2nc(NC(=O)c3nc(S(=O)(=O)Cc4ccc(C)cc4)ncc3Cl)sc2c1	inconclusive: 20.7 µM [falling, single point]
CCCCSc1nnc2c(n1)OC(c1ccc(Br)s1)N(C(C)=O)c1ccccc1-2 (stereo not drawn)	inconclusive: 14.7 µM [falling, single point]
CN1CCc2c(sc(NC(=O)CSc3ccccc3)c2-c2nc3ccccc3s2)C1	inactive
O=S(=O)(c1ccc(-c2csc(=Nc3ccc(OC(F)(F)Cl)cc3)n2CCCO)cc1)N1CCCC1	active: 1.85 µM
CSc1ccc(CCNC(=O)C(C)n2nc(C)c3sc4ccccc4c3c2=O)cc1 (stereo not drawn)	active: 1.17 µM
COc1ccc(-c2nc(CCNC(=O)c3cccs3)cs2)cc1	inconclusive: 23.3 µM [falling, single point]
